Measurements as given in US20160114004.
Construct, isoform or probe ends are uncertain for at least one entry.

By UniProt entry, the sequences of proteins in these tests, tags left out. Residues count along the entry.
UniProt Q3TKT4, 774-1310: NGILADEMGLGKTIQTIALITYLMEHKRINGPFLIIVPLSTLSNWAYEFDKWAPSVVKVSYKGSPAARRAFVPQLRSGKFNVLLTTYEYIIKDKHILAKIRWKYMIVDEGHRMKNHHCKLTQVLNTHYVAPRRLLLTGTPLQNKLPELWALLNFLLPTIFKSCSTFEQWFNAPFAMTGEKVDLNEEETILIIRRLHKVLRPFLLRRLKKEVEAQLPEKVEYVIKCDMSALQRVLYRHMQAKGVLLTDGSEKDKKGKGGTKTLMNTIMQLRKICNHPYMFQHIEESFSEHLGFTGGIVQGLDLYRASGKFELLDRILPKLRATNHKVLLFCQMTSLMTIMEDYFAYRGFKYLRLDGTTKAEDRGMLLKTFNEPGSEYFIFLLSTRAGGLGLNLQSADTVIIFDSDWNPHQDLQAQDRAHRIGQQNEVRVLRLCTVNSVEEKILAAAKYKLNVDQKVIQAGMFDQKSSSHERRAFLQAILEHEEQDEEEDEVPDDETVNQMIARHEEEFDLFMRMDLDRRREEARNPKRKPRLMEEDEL

Target: Brg1 (Smarca4) helicase region D1D2 (Mus musculus) (UniProt Q3TKT4)
Assay: EMSA
Details: 10 mM HEPES-KOH pH 7.3, 10 mM NaCl, 1 mM MgCl2, 1 mM DTT, tRNA carrier, room temperature; purified recombinant protein; protein details: MBP fusion (pMAL, amylose purified); label: biotin (NTP mix, in vitro transcribed)

Sequence: AAGAGCCCUACAGUCUGAUGAACAUUCUAGAGUAUGUGGACACAGAUGGACGCUCUGGCCACAGCCCGCAGCUCCUCCAGCUCCGCCUGCAGCAGAUUGUUGCGCCGUUCCACGAUGGCGAUGUUCUCCUUCAGGUCAUCAUUGGCACGGACAGCAUCAUCCAGCUGGAUUUGAGUGUCCUGAGGAUCAGAAAAAUGAGUGGCCUCAUUGCGGCUGCGUGUCUCCGCAUCCAGGGAGGUCUGCAGGGAGUCCACCAUCCGCAGGUGGUUGCGCUUGGCCUGCUCCAUCUCCUCAUCCUUCUCUGCCAGCUUCCUUUCGAUCUCUGCCUUGAUCUGGUUGAACUCCAGCUGGGCGCGGAGGAUCUUGCCCUCCUCGUGCUCCAGGGAGGCCUGGAAAGGAUAUAGAUUUUGCAGGCAUAUAGUCAGAGACCAGGGUGGAAGCAAGGGUGUGUCUAAAAACCAUGGCACAGAGAGCAUUUGGGGAUGGUAUACAUGACUCAGUAGGAGAUGCAGAGGAAGGAAAUGAGAAAGAGUGUGCACAAGAGAAAUGAAAGCAAGCUGAAGAGAAGGGGAUGCAGACUCCCAGGGGGGCGGAGGGAGUCAGCUUUGAAGACAAAGAGGAAAAUGAAAAGUGUUGCCAAGGAAACAGAGGCAAUGAAGCAGAGAGUAAAGGAAAAAAAAAAAAAAAACUACCACACACAGGCAGGCAGAGGUGGAAAGUGGAAUGAGCUGAAAUAGGAGUCUUUCUAAGGUACAGUAAAUAAAAUGUUUGUGUGAAGG [Mhrt779]
- binding result: binds
